Data published in PMC8636618.
Results are given in words; binding and its absence hold for the method and conditions named. In cells and extracts the contact can be indirect. Some results given as binding are weak or reduced against the parent protein; the word gives no strength.

Sequences of proteins named here, by UniProt entry; tags and fusion partners are left off. Residues count along the entry.
UniProt P02751, residues 32-2477: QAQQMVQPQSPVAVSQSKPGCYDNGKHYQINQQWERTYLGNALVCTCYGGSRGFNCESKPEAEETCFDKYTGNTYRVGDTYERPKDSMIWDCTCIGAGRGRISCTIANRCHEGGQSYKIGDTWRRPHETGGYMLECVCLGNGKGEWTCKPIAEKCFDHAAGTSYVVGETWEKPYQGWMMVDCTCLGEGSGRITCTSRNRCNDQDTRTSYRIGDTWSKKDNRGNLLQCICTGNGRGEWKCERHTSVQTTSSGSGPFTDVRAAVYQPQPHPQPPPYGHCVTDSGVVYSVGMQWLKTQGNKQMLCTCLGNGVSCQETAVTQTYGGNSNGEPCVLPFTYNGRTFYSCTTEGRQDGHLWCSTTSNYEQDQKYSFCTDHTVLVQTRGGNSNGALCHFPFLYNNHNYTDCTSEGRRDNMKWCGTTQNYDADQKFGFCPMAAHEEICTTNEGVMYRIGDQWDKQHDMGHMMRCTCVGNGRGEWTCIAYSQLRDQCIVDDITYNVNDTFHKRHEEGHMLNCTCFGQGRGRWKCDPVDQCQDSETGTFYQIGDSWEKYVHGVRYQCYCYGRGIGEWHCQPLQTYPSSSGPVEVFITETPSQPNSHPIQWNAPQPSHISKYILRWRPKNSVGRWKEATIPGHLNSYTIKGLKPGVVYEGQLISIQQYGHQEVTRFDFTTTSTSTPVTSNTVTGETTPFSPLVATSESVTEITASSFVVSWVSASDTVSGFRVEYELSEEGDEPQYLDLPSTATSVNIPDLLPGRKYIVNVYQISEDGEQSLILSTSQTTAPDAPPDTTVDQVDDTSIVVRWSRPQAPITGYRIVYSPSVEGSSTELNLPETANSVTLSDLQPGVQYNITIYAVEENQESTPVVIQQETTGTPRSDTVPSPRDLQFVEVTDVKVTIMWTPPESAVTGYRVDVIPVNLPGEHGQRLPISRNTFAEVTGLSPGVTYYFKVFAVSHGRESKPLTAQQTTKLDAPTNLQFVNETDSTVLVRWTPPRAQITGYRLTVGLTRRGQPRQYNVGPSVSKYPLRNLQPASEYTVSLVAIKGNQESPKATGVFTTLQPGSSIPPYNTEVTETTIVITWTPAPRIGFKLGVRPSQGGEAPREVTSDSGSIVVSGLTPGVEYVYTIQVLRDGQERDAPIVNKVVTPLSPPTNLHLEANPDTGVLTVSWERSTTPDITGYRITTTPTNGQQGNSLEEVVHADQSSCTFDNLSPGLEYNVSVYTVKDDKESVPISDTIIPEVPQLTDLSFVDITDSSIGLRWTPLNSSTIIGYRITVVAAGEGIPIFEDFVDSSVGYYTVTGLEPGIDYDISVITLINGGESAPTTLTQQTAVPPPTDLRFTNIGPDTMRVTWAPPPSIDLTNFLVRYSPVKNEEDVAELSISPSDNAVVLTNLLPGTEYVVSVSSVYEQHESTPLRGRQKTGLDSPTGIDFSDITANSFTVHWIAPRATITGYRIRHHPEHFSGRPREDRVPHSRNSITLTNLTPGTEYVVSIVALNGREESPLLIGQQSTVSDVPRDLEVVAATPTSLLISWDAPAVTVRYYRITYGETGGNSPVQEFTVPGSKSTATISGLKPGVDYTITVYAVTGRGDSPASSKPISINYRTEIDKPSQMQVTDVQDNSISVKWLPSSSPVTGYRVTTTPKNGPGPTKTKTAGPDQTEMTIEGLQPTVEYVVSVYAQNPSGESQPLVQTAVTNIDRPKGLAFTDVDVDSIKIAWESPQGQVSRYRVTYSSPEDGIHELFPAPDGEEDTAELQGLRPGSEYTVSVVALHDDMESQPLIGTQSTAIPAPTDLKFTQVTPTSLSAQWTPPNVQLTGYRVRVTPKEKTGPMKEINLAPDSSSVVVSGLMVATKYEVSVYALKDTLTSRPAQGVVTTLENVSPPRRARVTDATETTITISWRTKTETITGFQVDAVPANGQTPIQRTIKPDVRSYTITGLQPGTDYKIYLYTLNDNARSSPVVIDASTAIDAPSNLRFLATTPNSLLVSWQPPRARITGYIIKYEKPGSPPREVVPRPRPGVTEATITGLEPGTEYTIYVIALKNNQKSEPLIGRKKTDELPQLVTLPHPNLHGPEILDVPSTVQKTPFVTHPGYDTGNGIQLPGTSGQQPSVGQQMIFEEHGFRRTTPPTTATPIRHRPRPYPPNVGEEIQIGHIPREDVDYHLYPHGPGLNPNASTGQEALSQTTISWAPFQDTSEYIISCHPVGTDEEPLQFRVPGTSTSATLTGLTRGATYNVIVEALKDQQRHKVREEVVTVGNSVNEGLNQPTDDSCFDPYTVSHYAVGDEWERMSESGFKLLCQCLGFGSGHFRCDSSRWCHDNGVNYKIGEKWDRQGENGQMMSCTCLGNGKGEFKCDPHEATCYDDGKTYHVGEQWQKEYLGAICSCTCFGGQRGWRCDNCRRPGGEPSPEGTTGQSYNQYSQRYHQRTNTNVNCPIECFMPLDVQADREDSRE
UniProt Q9NZQ7, residues 19-290: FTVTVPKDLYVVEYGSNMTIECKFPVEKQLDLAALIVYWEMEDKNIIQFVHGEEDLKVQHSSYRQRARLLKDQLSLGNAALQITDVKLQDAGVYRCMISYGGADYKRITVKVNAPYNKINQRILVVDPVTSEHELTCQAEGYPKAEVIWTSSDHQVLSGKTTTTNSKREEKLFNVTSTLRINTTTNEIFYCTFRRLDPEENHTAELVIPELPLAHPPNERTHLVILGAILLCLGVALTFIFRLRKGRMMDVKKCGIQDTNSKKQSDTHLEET

Target: fibronectin (human (endogenous in HOP-62)) (UniProt P02751)
Assay: proximity ligation; in situ Duolink PLA on fixed HOP-62 and NCI-H23 cells; primary antibodies anti-PD-L1 (rabbit, clone 28-8) and anti-fibronectin (mouse, clone P1H11), 2 h at room temperature

PD-L1 (from UniProt Q9NZQ7 19-290)
binding: binds
